Test results from paper PMC11984844.
Results are given in words; binding and its absence hold for the method and conditions named. In cells and extracts the contact can be indirect. Here binding means that the protein was enriched with, or labelled near, the bait; the list need not be complete. Where a sequence is shown, tags or fusion partners need not be part of it. Blank lines part the entries; values can stand above or below the molecule they belong to.

The chains behind the UniProt entries cited, without tags or fusion partners.
UniProt O14965: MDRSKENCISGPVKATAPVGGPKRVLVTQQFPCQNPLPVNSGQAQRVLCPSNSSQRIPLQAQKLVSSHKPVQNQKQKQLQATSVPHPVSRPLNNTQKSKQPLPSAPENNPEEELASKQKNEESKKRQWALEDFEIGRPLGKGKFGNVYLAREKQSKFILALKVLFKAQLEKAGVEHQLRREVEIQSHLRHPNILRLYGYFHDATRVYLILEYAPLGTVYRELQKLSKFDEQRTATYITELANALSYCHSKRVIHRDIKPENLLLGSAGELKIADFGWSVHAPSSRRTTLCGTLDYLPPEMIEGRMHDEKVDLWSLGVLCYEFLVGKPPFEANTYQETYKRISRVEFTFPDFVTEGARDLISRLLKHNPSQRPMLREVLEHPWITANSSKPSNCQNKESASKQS

Target: T1, Flag-tagged eEF2K, bait of the immunoprecipitation-mass spectrometry (human) (UniProt O00418)
T1 sequence: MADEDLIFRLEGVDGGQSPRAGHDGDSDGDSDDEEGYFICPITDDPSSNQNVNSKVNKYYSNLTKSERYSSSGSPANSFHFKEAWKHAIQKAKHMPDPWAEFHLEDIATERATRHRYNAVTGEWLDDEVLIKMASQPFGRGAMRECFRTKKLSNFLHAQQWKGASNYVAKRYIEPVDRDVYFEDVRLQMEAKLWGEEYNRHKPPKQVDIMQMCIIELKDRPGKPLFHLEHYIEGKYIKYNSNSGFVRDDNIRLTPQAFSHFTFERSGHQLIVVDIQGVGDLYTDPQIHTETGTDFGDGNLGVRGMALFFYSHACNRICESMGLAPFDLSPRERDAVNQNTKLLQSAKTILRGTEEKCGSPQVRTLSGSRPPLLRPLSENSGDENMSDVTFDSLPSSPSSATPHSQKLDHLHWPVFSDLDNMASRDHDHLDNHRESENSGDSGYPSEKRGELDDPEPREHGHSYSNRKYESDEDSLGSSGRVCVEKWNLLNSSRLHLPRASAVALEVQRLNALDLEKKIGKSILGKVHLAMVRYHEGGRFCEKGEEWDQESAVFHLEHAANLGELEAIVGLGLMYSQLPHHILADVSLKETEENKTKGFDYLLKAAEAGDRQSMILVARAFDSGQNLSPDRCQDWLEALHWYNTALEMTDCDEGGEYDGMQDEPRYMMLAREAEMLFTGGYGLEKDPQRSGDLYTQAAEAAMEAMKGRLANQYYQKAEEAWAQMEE
Test: affinity purification with mass spectrometry; Immunoprecipitation-Mass Spectrometry with anti-Flag antibodies; cells not told in the text shown

- binding: binds
Molecule: AURKA found in the immunoprecipitation-mass spectrometry (from UniProt O14965 1-403) (enzyme)

- binding: binds
B1: Homer1 (protein, UniProt Q86YM7 1-354)
chain: MGEQPIFSTRAHVFQIDPNTKKNWVPTSKHAVTVSYFYDSTRNVYRIISLDGSKAIINSTITPNMTFTKTSQKFGQWADSRANTVYGLGFSSEHHLSKFAEKFQEFKEAARLAKEKSQEKMELTSTPSQESAGGDLQSPLTPESINGTDDERTPDVTQNSEPRAEPTQNALPFSHSSAISKHWEAELATLKGNNAKLTAALLESTANVKQWKQQLAAYQEEAERLHKRVTELECVSSQANAVHTHKTELNQTIQELEETLKLKEEEIERLKQEIDNARELQEQRDSLTQKLQEVEIRNKDLEGQLSDLEQRLEKSQNEQEAFRNNLKTLLEILDGKIFELTELRDNLAKLLECS
